Assay results published in article PMC5005315.
Results are given in words; binding and its absence hold for the method and conditions named. Binding calls can cover weak binding; strength is not graded here. Where a sequence is shown, tags or fusion partners need not be part of it.

Molecular target: cytoplasmic soluble domain of PorY (PorYC) fused to the T25 domain (Porphyromonas gingivalis ATCC33277) (UniProt B2RMC4)
Assay: two-hybrid

B1: PorX fused to the T18 domain of the Bordetella adenylate cyclase (protein, UniProt B2RJJ3 1-518)
chain: MEKNMRPYTVLWADDEIDLLKPHILFLEQKGYQVTPVLSGNDAIEALQNNDFDIVFLDENMPGIGGLDALQKIKELKPYTPVVMITKSEEEHIMTQAIGGKIADYLIKPVNPNQLLLSLKKNLQQHSIISETTNTNYRQEFVQLGAQMSGKLSFEEWKELYRRIVFWEIELEQADRQMGELLEMQKQEANRLFARFVTQNYREWIAKPDTRPTMSPDLFKQKVFPLLDNGEKVFFILIDNFRQDQWESVKSMLSEFYTFEEDMYLSILPTATQYARNAIFSGLMPLQIEKMFPDLWVDEESEEGKNLNEEPMIRTLIERYRKHYSFSYNKVYETKFGERLLGQIRSLSQNQLNVIVLNFVDMMSHARTDSKMIRELASNEAAYRSLTKSWFKHSTTYNLFRSIAEMGYKVVLTTDHGTIQVKNPVKVIGDRSTNTNLRYKIGKNLDYNPKEVFEIKDPASVGLPHNNLSDKFIFTKEDDFFAYPNNYNYYVQYYRNTFQHGGISLEEMLVPVITMQPK
Q: Which binding does the source give for B1 here?
A: The binding was “binds”.
